# ± gives the standard deviation of the averaged measurements. The entries are a selection whose mix differs from that of the whole data set.
# Sequences of proteins named here, by UniProt entry; tags and fusion partners are left off. A change or cut given only in a name is not applied to a line headed by its entry.
# UniProt Q9H074: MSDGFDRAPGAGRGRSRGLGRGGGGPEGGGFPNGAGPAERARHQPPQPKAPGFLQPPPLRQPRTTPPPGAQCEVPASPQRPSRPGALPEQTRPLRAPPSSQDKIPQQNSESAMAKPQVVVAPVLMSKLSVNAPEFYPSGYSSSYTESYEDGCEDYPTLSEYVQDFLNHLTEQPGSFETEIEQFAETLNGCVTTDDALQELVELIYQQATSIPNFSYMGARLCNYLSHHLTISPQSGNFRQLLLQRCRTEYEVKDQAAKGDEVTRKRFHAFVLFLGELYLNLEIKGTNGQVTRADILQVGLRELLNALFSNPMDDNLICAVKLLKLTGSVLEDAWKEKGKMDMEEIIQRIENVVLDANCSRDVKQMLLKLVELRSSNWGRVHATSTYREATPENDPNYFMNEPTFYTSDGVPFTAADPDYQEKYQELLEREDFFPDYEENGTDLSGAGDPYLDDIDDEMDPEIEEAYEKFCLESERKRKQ
# UniProt Q9H7Z6: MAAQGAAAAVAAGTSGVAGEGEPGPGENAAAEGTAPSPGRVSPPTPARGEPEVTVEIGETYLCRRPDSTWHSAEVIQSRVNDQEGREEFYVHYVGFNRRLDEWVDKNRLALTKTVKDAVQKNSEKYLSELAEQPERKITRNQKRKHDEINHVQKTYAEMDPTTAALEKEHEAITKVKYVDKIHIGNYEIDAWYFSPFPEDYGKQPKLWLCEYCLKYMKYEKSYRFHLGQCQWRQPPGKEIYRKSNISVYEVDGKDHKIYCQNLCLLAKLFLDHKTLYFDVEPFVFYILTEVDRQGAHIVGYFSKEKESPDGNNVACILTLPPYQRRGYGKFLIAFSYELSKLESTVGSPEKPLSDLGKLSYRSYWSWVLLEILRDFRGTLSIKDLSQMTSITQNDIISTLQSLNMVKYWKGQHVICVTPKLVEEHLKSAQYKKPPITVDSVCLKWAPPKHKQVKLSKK
# UniProt Q9NP80: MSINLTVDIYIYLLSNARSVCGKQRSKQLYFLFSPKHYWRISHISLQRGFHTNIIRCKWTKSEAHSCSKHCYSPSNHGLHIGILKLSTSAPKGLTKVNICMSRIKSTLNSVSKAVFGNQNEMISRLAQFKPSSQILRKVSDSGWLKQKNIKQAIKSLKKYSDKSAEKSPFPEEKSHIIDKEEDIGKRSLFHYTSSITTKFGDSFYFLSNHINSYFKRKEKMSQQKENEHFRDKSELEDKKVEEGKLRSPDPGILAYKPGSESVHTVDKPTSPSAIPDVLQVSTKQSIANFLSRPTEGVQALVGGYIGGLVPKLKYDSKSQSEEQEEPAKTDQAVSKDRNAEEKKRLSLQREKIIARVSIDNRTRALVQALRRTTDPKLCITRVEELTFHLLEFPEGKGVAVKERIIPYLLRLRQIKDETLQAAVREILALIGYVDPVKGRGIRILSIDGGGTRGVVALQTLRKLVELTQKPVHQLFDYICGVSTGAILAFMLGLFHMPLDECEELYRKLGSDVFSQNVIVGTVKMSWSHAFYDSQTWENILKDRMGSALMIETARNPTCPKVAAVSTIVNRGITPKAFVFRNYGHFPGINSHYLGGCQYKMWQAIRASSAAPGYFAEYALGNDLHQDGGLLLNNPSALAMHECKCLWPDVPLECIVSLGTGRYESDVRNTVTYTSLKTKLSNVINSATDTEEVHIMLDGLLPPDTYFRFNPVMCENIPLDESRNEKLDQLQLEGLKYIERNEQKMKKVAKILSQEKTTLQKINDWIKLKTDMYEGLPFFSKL
# UniProt Q9H444: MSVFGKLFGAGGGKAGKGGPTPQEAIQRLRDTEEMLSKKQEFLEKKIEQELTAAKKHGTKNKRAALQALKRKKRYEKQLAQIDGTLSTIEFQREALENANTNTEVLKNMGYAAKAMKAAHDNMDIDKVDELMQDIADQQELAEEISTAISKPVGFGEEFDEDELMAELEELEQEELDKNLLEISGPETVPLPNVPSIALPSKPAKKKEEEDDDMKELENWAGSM
# UniProt Q9HD40: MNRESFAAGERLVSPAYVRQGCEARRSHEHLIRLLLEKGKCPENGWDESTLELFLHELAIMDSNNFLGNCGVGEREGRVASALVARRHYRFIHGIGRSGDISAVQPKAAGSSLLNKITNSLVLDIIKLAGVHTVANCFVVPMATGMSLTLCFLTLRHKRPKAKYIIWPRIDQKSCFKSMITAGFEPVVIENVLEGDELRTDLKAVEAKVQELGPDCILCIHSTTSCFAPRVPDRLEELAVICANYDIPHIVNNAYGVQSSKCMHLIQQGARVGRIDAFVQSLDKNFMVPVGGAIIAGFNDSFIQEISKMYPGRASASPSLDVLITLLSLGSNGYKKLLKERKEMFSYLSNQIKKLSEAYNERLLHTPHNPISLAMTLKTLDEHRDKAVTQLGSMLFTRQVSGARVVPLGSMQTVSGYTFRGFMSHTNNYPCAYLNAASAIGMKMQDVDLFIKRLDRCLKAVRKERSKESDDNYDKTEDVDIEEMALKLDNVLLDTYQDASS
# UniProt Q9HCG8: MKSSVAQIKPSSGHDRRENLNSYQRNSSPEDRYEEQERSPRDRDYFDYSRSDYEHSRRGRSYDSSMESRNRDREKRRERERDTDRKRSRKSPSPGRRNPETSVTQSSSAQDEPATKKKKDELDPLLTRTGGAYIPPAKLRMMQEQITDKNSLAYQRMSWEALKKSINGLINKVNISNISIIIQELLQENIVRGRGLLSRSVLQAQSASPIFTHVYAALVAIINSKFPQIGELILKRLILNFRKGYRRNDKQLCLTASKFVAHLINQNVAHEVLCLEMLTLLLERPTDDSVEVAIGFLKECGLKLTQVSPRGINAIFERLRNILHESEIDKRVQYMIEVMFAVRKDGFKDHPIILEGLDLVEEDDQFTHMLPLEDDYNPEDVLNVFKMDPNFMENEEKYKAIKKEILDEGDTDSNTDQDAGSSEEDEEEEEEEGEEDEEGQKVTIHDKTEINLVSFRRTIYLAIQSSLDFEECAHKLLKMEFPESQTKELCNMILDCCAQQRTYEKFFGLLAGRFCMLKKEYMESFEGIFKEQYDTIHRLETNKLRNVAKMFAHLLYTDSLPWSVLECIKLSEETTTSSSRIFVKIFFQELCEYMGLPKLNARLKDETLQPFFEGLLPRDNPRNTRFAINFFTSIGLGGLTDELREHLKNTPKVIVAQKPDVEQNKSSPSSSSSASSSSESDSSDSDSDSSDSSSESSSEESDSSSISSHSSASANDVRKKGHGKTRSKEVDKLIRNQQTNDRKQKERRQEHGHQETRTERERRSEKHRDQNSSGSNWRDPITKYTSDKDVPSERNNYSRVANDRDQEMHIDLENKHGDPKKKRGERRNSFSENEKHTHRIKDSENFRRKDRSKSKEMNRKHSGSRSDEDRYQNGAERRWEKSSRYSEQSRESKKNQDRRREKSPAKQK
# UniProt Q9H6Q4: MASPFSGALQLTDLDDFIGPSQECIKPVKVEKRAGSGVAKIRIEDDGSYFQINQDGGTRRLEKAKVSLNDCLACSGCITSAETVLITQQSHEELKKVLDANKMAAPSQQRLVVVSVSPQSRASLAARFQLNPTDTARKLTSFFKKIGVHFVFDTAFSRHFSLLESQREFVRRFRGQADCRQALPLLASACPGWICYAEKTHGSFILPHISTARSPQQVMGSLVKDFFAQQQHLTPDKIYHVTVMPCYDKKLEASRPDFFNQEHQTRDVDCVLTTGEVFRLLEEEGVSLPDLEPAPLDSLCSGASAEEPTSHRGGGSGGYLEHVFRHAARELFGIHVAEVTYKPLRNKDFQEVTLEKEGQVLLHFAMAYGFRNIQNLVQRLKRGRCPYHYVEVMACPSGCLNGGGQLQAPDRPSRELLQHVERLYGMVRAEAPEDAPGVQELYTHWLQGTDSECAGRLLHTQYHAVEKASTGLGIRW
# UniProt Q9HCE5: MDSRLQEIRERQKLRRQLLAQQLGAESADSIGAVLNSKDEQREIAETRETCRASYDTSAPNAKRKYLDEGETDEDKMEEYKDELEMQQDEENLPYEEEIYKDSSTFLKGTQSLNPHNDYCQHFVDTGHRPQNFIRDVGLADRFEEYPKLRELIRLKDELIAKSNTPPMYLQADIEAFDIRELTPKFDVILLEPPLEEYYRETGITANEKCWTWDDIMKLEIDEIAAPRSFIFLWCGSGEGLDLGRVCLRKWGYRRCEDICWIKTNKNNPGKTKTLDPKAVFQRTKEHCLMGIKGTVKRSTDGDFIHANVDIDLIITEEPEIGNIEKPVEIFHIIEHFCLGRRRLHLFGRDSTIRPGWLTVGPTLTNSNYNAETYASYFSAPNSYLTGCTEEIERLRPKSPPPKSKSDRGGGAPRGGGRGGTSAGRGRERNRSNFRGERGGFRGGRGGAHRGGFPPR
# UniProt Q9H1Y0: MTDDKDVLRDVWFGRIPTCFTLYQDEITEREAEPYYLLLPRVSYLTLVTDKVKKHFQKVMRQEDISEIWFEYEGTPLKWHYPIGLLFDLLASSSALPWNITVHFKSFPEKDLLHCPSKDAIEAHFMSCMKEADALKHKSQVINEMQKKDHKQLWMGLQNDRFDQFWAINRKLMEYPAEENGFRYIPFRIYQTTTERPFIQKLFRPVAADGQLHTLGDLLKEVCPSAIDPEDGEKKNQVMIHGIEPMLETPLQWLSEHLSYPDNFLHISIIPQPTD
# UniProt Q9H0K6: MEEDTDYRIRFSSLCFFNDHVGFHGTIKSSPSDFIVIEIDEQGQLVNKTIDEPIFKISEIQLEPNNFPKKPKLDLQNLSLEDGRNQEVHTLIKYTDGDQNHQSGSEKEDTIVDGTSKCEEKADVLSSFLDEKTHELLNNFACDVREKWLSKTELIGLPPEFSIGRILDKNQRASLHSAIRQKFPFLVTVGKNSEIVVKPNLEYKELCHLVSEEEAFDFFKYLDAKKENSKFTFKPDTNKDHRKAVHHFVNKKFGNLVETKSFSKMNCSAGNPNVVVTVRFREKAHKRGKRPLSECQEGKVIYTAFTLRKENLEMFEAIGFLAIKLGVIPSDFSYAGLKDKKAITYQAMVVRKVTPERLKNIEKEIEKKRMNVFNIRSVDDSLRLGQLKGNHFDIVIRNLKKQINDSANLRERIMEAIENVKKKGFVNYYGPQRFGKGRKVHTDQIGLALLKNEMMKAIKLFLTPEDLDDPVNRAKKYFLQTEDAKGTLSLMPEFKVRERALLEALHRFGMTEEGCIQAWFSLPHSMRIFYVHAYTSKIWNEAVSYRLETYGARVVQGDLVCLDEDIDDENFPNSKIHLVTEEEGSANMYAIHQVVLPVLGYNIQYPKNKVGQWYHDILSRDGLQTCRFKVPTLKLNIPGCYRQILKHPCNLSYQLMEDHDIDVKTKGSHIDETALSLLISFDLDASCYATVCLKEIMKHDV
# UniProt Q9GZM8: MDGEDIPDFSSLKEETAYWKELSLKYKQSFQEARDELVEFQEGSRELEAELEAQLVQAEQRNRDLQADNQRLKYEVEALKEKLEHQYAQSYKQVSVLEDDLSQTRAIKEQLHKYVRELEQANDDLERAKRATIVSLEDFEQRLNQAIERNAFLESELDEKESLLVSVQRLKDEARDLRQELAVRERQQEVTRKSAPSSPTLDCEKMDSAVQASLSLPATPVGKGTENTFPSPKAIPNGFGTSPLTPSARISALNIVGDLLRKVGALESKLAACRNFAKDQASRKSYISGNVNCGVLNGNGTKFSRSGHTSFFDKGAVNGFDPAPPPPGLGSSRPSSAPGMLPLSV
# UniProt Q9H0F7: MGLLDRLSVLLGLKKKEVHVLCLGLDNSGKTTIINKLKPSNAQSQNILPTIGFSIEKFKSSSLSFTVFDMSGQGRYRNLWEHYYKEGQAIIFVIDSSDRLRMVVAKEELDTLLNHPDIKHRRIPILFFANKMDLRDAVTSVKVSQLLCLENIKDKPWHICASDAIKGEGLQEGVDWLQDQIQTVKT
# UniProt Q9BZI7: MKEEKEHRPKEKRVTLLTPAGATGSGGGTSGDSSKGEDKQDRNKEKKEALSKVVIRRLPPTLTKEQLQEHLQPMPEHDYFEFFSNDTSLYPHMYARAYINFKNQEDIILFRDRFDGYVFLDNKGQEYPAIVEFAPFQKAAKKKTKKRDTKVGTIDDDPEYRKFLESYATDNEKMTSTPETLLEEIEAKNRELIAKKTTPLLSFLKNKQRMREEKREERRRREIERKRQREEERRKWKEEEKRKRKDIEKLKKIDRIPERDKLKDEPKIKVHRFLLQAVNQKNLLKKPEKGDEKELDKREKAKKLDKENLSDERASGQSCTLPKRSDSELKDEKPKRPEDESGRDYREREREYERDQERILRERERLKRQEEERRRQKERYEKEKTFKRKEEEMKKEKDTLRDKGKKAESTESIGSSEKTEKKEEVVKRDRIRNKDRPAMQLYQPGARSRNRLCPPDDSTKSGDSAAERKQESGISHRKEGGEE
# UniProt Q9NPA8: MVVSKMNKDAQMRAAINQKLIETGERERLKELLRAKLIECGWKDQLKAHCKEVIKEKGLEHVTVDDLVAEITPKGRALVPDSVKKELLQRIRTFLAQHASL
# Compound: Nc1ncnc2c1ncn2[C@@H]1O[C@H](COP(=O)(O)OP(=O)(O)NP(=O)(O)O)[C@@H](O)[C@H]1O [adenylyl imidodiphosphate]
# Test: NP40-soluble protein abundance relative to vehicle (solubility fold change) (ratio); higher = more soluble protein in presence of AMP-PNP
# Summary of the method: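 Jurkat crude lysate prepared with a Dounce homogeniser was treated at eight concentrations spanning 0.1 to 10 mM, 10 min at room temperature then 3 min at 37 °C. Solubilisation with 0.8% NP40 and benzonase and ultracentrifugation preceded TMT labelling of the supernatant for LC-MS/MS. Fold change against the detergent-processed vehicle was determined per replicate from vsn-normalised intensities, across three independent experiments.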
Target,NP40-soluble protein abundance (concentration: 1mM),NP40-soluble protein abundance (concentration: 2mM),NP40-soluble protein abundance (concentration: 4mM),NP40-soluble protein abundance (concentration: 6mM),NP40-soluble protein abundance (concentration: 8mM),NP40-soluble protein abundance (concentration: 10mM)
UniProt Q9H074 and related entries,1 ± 0.057,1.01 ± 0.066,1.02 ± 0.018,0.989 ± 0.044,0.9811 ± 0.0093,0.952 ± 0.067
UniProt Q9H4A4 and related entries,0.981 ± 0.028,0.931 ± 0.083,0.982 ± 0.015,0.99 ± 0.038,1.02 ± 0.042,0.961 ± 0.013
MIS12 (UniProt Q9H081),1 ± 0.037,1.01 ± 0.016,1 ± 0.071,0.927 ± 0.05,0.938 ± 0.022,0.909 ± 0.039
UniProt Q9HCM4 and related entries,1.02 ± 0.055,1.01 ± 0.029,1.02 ± 0.056,1.01 ± 0.042,0.996 ± 0.07,0.974 ± 0.043
UniProt Q9H7Z6,1.07 ± 0.029,1.05 ± 0.056,1.06 ± 0.011,1.06 ± 0.072,1.09 ± 0.041,1.09 ± 0.028
UniProt Q9H7E2-3,1.06 ± 0.037,1.07 ± 0.029,1.066 ± 0.0091,1.052 ± 0.002,1.04 ± 0.035,1.07 ± 0.019
UniProt Q9H0X9 and related entries,0.989 ± 0.046,1.03 ± 0.024,0.982 ± 0.043,0.973 ± 0.051,0.947 ± 0.021,0.964 ± 0.032
UniProt Q9NP80 and related entries,0.996 ± 0.008,1.04 ± 0.059,1.02 ± 0.011,1.003 ± 0.0022,0.99 ± 0.039,1.01 ± 0.039
UniProt Q9GZY8-2,1.04 ± 0.017,1.05 ± 0.057,1.03 ± 0.036,0.992 ± 0.024,0.983 ± 0.02,0.973 ± 0.015
KATNBL1 (UniProt Q9H079),1 ± 0.034,1.01 ± 0.02,0.999 ± 0.039,0.985 ± 0.018,1 ± 0.02,0.992 ± 0.011
JPH1 (UniProt Q9HDC5),1 ± 0.028,1.02 ± 0.025,0.999 ± 0.036,1.02 ± 0.013,1.01 ± 0.024,1.03 ± 0.02
UniProt Q9H5V9 and related entries,1.02 ± 0.016,1.04 ± 0.018,1.07 ± 0.028,1.07 ± 0.025,1.06 ± 0.042,1.1 ± 0.036
EML4 (UniProt Q9HC35),0.998 ± 0.011,1.02 ± 0.046,1.01 ± 0.046,0.975 ± 0.017,0.975 ± 0.043,0.979 ± 0.043
UniProt Q9HAT2 and related entries,0.978 ± 0.072,0.958 ± 0.049,0.954 ± 0.064,1.05 ± 0.044,1.03 ± 0.017,1.06 ± 0.01
UniProt Q9H668,0.991 ± 0.028,0.97 ± 0.028,0.985 ± 0.027,0.995 ± 0.018,0.985 ± 0.044,0.963 ± 0.024
ISCU (UniProt Q9H1K1),1.01 ± 0.039,1.06 ± 0.018,0.987 ± 0.043,0.969 ± 0.03,0.96 ± 0.054,0.958 ± 0.047
CARS2 (UniProt Q9HA77),0.956 ± 0.015,0.93 ± 0.054,0.977 ± 0.027,0.9436 ± 0.0065,0.955 ± 0.012,0.902 ± 0.011
CHMP4B (UniProt Q9H444),0.967 ± 0.063,1.03 ± 0.12,0.949 ± 0.051,0.971 ± 0.075,0.946 ± 0.081,0.99 ± 0.097
SEPSECS (UniProt Q9HD40),0.995 ± 0.0065,0.973 ± 0.03,0.994 ± 0.032,0.968 ± 0.035,0.964 ± 0.038,0.955 ± 0.058
UniProt Q9H9T3-2,1.003 ± 0.0041,0.956 ± 0.096,0.971 ± 0.035,0.931 ± 0.058,0.965 ± 0.062,0.933 ± 0.066

Target,NP40-soluble protein abundance (concentration: 1mM),NP40-soluble protein abundance (concentration: 2mM),NP40-soluble protein abundance (concentration: 4mM),NP40-soluble protein abundance (concentration: 6mM),NP40-soluble protein abundance (concentration: 8mM),NP40-soluble protein abundance (concentration: 10mM)
CWC22 (UniProt Q9HCG8),1.04 ± 0.043,1.09 ± 0.061,1.07 ± 0.05,1.05 ± 0.08,1.03 ± 0.059,1.09 ± 0.056
UniProt Q9H7H0 and related entries,0.947 ± 0.034,0.949 ± 0.043,0.921 ± 0.062,0.949 ± 0.059,0.958 ± 0.045,0.938 ± 0.054
UniProt Q9HA65 and related entries,1.07 ± 0.015,1.04 ± 0.023,1.033 ± 0.004,1.04 ± 0.074,1.04 ± 0.018,1.09 ± 0.025
TSPYL1 (UniProt Q9H0U9),0.977 ± 0.025,0.9842 ± 0.0063,0.9646 ± 0.0081,0.9449 ± 0.001,0.94314 ± 0.00052,0.959 ± 0.056
UBE2T (UniProt Q9NPD8),1 ± 0.035,0.997 ± 0.058,0.996 ± 0.057,0.992 ± 0.026,1.01 ± 0.066,0.976 ± 0.053
UniProt Q9H6Q4,0.993 ± 0.0077,0.994 ± 0.044,1.03 ± 0.022,0.977 ± 0.025,0.994 ± 0.029,0.992 ± 0.039
UniProt Q9H1P3 and related entries,1.02 ± 0.017,1.02 ± 0.062,1.01 ± 0.025,0.993 ± 0.025,0.988 ± 0.04,0.99 ± 0.015
UniProt Q9C0D3 and related entries,1.02 ± 0.023,0.956 ± 0.042,0.99 ± 0.017,0.9793 ± 0.0084,0.9936 ± 0.0094,0.974 ± 0.013
UCK2 (UniProt Q9BZX2),1.04 ± 0.018,0.9952 ± 0.0077,1.03 ± 0.04,0.991 ± 0.027,1.01 ± 0.058,0.951 ± 0.029
UniProt Q9BZL4-4|Q9BZL4,1 ± 0.033,1.04 ± 0.036,1.01 ± 0.047,0.997 ± 0.023,0.978 ± 0.017,0.999 ± 0.015
UniProt Q9HCE5,0.984 ± 0.026,0.955 ± 0.047,0.949 ± 0.034,0.945 ± 0.0095,0.93 ± 0.014,0.908 ± 0.027
ATG5 (UniProt Q9H1Y0),1.01 ± 0.029,0.965 ± 0.037,1.02 ± 0.034,1.02 ± 0.056,1.03 ± 0.047,1.03 ± 0.035
TFB2M (UniProt Q9H5Q4),1.01 ± 0.037,1 ± 0.03,1 ± 0.024,1.01 ± 0.014,1 ± 0.017,1.05 ± 0.035
UniProt Q9H8V3 and related entries,0.979 ± 0.041,0.963 ± 0.041,0.9918 ± 0.0047,0.985 ± 0.015,1 ± 0.03,0.989 ± 0.042
GLIPR2 (UniProt Q9H4G4),1.01 ± 0.031,1.04 ± 0.081,1.02 ± 0.036,1.09 ± 0.04,1.11 ± 0.091,1.12 ± 0.025
DYNLRB1 (UniProt Q9NP97),0.996 ± 0.011,1.04 ± 0.054,0.977 ± 0.03,1.01 ± 0.018,0.9949 ± 0.0057,1.01 ± 0.02
UniProt Q9GZU8,1.02 ± 0.055,1.07 ± 0.044,0.995 ± 0.058,0.973 ± 0.049,0.931 ± 0.044,0.948 ± 0.034
UniProt Q9H7C9 and related entries,0.9902 ± 0.0036,1.04 ± 0.058,0.968 ± 0.027,0.998 ± 0.037,0.979 ± 0.037,0.979 ± 0.031
ANKRA2 (UniProt Q9H9E1),0.912 ± 0.057,0.91 ± 0.023,0.911 ± 0.025,0.97 ± 0.087,0.99 ± 0.058,0.963 ± 0.05
PUS7L (UniProt Q9H0K6),1.03 ± 0.05,1.01 ± 0.039,1.01 ± 0.049,0.996 ± 0.05,0.997 ± 0.033,0.993 ± 0.047

Target,NP40-soluble protein abundance (concentration: 1mM),NP40-soluble protein abundance (concentration: 2mM),NP40-soluble protein abundance (concentration: 4mM),NP40-soluble protein abundance (concentration: 6mM),NP40-soluble protein abundance (concentration: 8mM),NP40-soluble protein abundance (concentration: 10mM)
UniProt Q9HAJ7 and related entries,0.95342 ± 8.1e-05,0.931 ± 0.053,1.05 ± 0.05,1.05 ± 0.021,0.99 ± 0.046,0.973 ± 0.053
UniProt Q9H6U6 and related entries,1.01 ± 0.013,1.03 ± 0.01,1.02 ± 0.05,0.962 ± 0.021,0.955 ± 0.036,0.983 ± 0.01
RAB1B (UniProt Q9H0U4),0.976 ± 0.01,0.981 ± 0.016,0.927 ± 0.04,0.972 ± 0.021,0.9252 ± 0.0074,0.937 ± 0.052
UniProt Q9GZM8 and related entries,1.01 ± 0.016,1.018 ± 0.01,1 ± 0.013,1 ± 0.039,1.02 ± 0.042,1.02 ± 0.053
CHMP1A (UniProt Q9HD42),0.988 ± 0.051,1.07 ± 0.12,1.01 ± 0.068,1.02 ± 0.092,1.03 ± 0.051,1.03 ± 0.093
UniProt Q9H2H8 and related entries,1.04 ± 0.038,1.04 ± 0.032,1.04 ± 0.017,0.998 ± 0.031,1.02 ± 0.018,1.03 ± 0.038
UniProt Q9H6W3,1.02 ± 0.056,0.997 ± 0.055,1.02 ± 0.065,1.02 ± 0.065,1.06 ± 0.056,1.04 ± 0.086
ZHX3 (UniProt Q9H4I2),1.04 ± 0.032,1.064 ± 0.0044,1.09 ± 0.014,1.04 ± 0.055,1.02 ± 0.029,1.04 ± 0.035
UniProt Q9H0C5 and related entries,0.953 ± 0.036,0.87 ± 0.013,0.899 ± 0.028,0.952 ± 0.019,0.961 ± 0.04,0.902 ± 0.032
UniProt Q9H0F6 and related entries,1.06 ± 0.044,1.01 ± 0.031,1.01 ± 0.056,0.965 ± 0.046,0.994 ± 0.059,0.98 ± 0.027
UniProt Q9H0F7 and related entries,1 ± 0.059,0.966 ± 0.019,1.03 ± 0.055,1.07 ± 0.069,1.1 ± 0.088,1.05 ± 0.053
SDF2L1 (UniProt Q9HCN8),1.01 ± 0.033,1.02 ± 0.072,1.01 ± 0.051,0.99 ± 0.01,0.992 ± 0.021,0.966 ± 0.033
UniProt Q9BZI7 and related entries,1.05 ± 0.014,1.09 ± 0.054,1.05 ± 0.031,1.02 ± 0.049,1.02 ± 0.028,1.02 ± 0.021
REXO4 (UniProt Q9GZR2),1.06 ± 0.047,1.09 ± 0.073,1.1 ± 0.038,1.17 ± 0.036,1.18 ± 0.039,1.21 ± 0.051
UniProt Q9H0P0 and related entries,1 ± 0.016,0.989 ± 0.054,1.01 ± 0.039,0.988 ± 0.035,0.978 ± 0.04,0.96 ± 0.055
CCDC86 (UniProt Q9H6F5),1.12 ± 0.025,1.17 ± 0.096,1.2 ± 0.017,1.25 ± 0.05,1.31 ± 0.084,1.4 ± 0.13
TAOK3 (UniProt Q9H2K8),1.04 ± 0.019,1.05 ± 0.06,1.03 ± 0.033,1.05 ± 0.041,1.04 ± 0.033,1.07 ± 0.065
UniProt Q9NPA8 and related entries,1.05 ± 0.058,1.06 ± 0.059,0.987 ± 0.044,1.06 ± 0.024,0.963 ± 0.035,1.07 ± 0.075
WDR33 (UniProt Q9C0J8),1.04 ± 0.023,1.06 ± 0.014,1.12 ± 0.037,1.12 ± 0.023,1.14 ± 0.036,1.2 ± 0.07
XAB2 (UniProt Q9HCS7),1 ± 0.05,0.936 ± 0.13,1 ± 0.026,0.97 ± 0.011,1.03 ± 0.028,0.973 ± 0.066

# Shown as tab-separated lines: entries from further up
Target	NP40-soluble protein abundance (concentration: 1mM)	NP40-soluble protein abundance (concentration: 2mM)	NP40-soluble protein abundance (concentration: 4mM)	NP40-soluble protein abundance (concentration: 6mM)	NP40-soluble protein abundance (concentration: 8mM)	NP40-soluble protein abundance (concentration: 10mM)
UniProt Q9H6U6 and related entries	1.01 ± 0.013	1.03 ± 0.01	1.02 ± 0.05	0.962 ± 0.021	0.955 ± 0.036	0.983 ± 0.01
RAB1B (UniProt Q9H0U4)	0.976 ± 0.01	0.981 ± 0.016	0.927 ± 0.04	0.972 ± 0.021	0.9252 ± 0.0074	0.937 ± 0.052
UniProt Q9GZM8 and related entries	1.01 ± 0.016	1.018 ± 0.01	1 ± 0.013	1 ± 0.039	1.02 ± 0.042	1.02 ± 0.053
CHMP1A (UniProt Q9HD42)	0.988 ± 0.051	1.07 ± 0.12	1.01 ± 0.068	1.02 ± 0.092	1.03 ± 0.051	1.03 ± 0.093

# — the supplement of paper PMC6411743
